The target of this assay is Krüppel-like factor 2 (KLF2) (human (endogenous in HUVEC)) (UniProt Q9Y5W3). The assay is described as follows: proximity ligation; confluent HUVEC, fixed with 4% paraformaldehyde, permeabilized with 0.5% Triton, blocked with 3% BSA; anti-ERG (mouse) and anti-KLF2 (rabbit) antibodies, Duolink In Situ Orange Kit Mouse/Rabbit; cells static or under low (5 dynes per cm^2) or high (20 dynes per cm^2) shear stress for 24 h.

By UniProt entry, the sequences of proteins in these tests, tags left out.
UniProt Q9Y5W3: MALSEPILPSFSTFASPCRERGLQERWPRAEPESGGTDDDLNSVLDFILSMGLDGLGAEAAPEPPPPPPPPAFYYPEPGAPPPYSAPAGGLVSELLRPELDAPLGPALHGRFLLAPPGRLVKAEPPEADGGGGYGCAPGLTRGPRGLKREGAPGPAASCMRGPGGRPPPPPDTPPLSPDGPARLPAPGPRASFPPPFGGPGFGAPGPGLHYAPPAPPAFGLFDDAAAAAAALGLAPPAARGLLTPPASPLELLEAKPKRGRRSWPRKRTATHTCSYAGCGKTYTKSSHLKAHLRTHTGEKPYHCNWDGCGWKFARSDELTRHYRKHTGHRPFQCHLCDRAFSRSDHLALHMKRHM

These are yes or no findings as the source states them, for the method shown. Binding seen in cells or lysates may run through a third protein. Some binding calls cover weakened binding; strength is not graded here.

B1: ETS-related gene (ERG) transcription factor (protein, UniProt P11308 1-479)
chain: MASTIKEALSVVSEDQSLFECAYGTPHLAKTEMTASSSSDYGQTSKMSPRVPQQDWLSQPPARVTIKMECNPSQVNGSRNSPDECSVAKGGKMVGSPDTVGMNYGSYMEEKHMPPPNMTTNERRVIVPADPTLWSTDHVRQWLEWAVKEYGLPDVNILLFQNIDGKELCKMTKDDFQRLTPSYNADILLSHLHYLRETPLPHLTSDDVDKALQNSPRLMHARNTGGAAFIFPNTSVYPEATQRITTRPDLPYEPPRRSAWTGHGHPTPQSKAAQPSPSTVPKTEDQRPQLDPYQILGPTSSRLANPGSGQIQLWQFLLELLSDSSNSSCITWEGTNGEFKMTDPDEVARRWGERKSKPNMNYDKLSRALRYYYDKNIMTKVHGKRYAYKFDFHGIAQALQPHPPESSLYKYPSDLPYMGSYHAHPQKMNFVAPHPPALPVTSSSFFAAPNPYWNSPTGGIYPNTRLPTSHMPSHLGTYY
B1: the binding entry was “binds”.

The values are drawn from article PMC6825134.
